Assay results taken from patent US7598352B2, “Method of identifying polypeptide monobodies which bind to target proteins and use thereof” (University of Rochester, priority 2000, dated 2009).
Some entries share one result that the patent states for a list of compounds.

Biological target: T1, ERα-E (residues 297-554, the E domain of Estrogen Receptor α) (Homo sapiens, UniProt P03372, G400V)
T1 construct: ERα-E (residues 297-554, the E domain of Estrogen Receptor α); expressed in transfected cells; host or cells: Saccharomyces cerevisiae RFY206
T1 sequence (P03372 297-554 G400V): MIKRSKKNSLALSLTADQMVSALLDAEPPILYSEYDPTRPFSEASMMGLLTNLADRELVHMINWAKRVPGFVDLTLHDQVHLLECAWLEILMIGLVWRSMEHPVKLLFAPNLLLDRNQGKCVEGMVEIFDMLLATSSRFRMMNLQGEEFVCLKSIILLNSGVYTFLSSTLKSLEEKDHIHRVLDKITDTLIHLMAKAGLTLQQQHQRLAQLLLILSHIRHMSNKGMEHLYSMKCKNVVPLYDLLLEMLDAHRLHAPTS
Assay: Quantitative β-galactosidase yeast two-hybrid assay, ERα-E bait (F domain deleted) compared with ERα-EF
Assay type: cell-based
Details: in the absence of a bound ligand; ERα-E vs ERα-EF; FIGS. 16A-B
Description: Quantitative assays were performed as follows. The yeast strain RFY206 was (1) first transformed with pEGERα297-595 (or pEGERα297-554) and pSH18-34 and (2) subsequently with a derivative of the pYT45 plasmid encoding a particular monobody. Yeast cells were grown overnight at 30° C. in YC Glc-his-ura-trp media. The culture was then spun down, the media were discarded, and the cells were resuspended in YC Gal Raf-his-ura-trp media containing a ligand at a final cell density of 0.2 OD660 nm in a total volume of 175 μl in the wells of a deep 96-well plate. Ligands used were E2, ICI182,780, OHT, raloxifene, progesterone, estriol, diethylstilbestrol, and genistein. The ligand concentration was 1 μM except for genistein (10 μM). After incubating for six hours at 30° C. with shaking, 175 μl of β--galactosidase assay buffer (60 mM Na2HPO4, 40 mM NaH2PO4, 10 mM KCl, 1 mM MgSO4, 0.27% β-mercaptoethanol, 0.004% SDS, 4 mg/ml 2-nitrophenyl-β-D-[…], 50% Y-PER (Pierce)) was added to the culture, incubated at 30° C., then the reaction was stopped by adding 150 μl of 1M Na2CO3. After centrifugation, OD420 was measured and the β-galactosidase activity was calculated.
The affects of the F domain (residues 551-595) on interactions of monobodies with the LBD (the E domain) of ERα was tested. […]

B1: SRC-1: NR-box fragment (residues 570-780) of steroid receptor coactivator-1, natural coactivator of ER (protein)
chain: PSRLNIQPAKAESKDNKEIASILNEMIQSDNSSSDGKPLDSGLLHNNDRLSDGDSKYSQTSHKLVQLLTTTAEQQLRHADIDTSCKDVLSCTGTSNSASANSSGGSCPSSHSSLTERHKILHRLLQEGSPSDITTLSVEPDKKDSASTSVSVTGQVQGNSSIKLELDASKKKESKDHQLLRYLLDKDEKDLRSTPNLSLDDVKVKVEKKEQ
modifications: left off: large carriers
- increase in β-galactosidase activity (binding to ERα) on deletion of the F domain: more than 100 fold
